The text below walks through data of patent US20230357411A1.

Substitutions are numbered along the chain they refer to. These are yes or no findings as the source states them, for the method shown.

B1: humanized anti-TrkA monoclonal antibody H3L1-IgG4 (antibody, V domains shown)
VH: EVQLLESGGGLVQPGGSLKLSCKASGYAFTNYWLGWMKQRPGHGLEWIGDFYPRTGNTFYNENFKGQVTMSVDKSITTAYLQWNSLKASDTAMYYCARAGTGFDYWGQGTTLTVSS
VL: EIVMTQSPATLSLSVGERVTLSCKASENVGGYVSWYQQKPDQSPKLLIYGASSRHTGVPDRFTGSGSETDFTLTISSVQAEDLAAYHCGQNYIYPFTFGGGTKLEIKR
B2: humanized anti-TrkA monoclonal antibody H3L2-IgG4 (antibody, V domains shown)
VH: B1 VH
VL: B1 VL with H55A
B3: humanized anti-TrkA monoclonal antibody H1L1-IgG4 (antibody)
heavy: EVQLLESGGGLVQPGGSLKLSCKASGYAFTNYWLGWMKQRPGHGLEWIGDFYPRTGNTFYNENFKGKVTLTADKSSNTAYMQLSSLTSEDSAVYLCARAGTGFDYWGQGTTLTVSSASTKGPSVFPLAPCSRSTSESTAALGCLVKDYFPEPVTVSWNSGALTSGVHTFPAVLQSSGLYSLSSVVTVPSSSLGTKTYTCNVDHKPSNTKVDKRVESKYGPPCPPCPAPEAAGGPSVFLFPPKPKDTLMISRTPEVTCVVVDVSQEDPEVQFNWYVDGVEVHNAKTKPREEQFNSTYRVVSVLTVLHQDWLNGKEYKCKVSNKGLPSSIEKTISKAKGQPREPQVYTLPPSQEEMTKNQVSLTCLVKGFYPSDIAVEWESNGQPENNYKTTPPVLDSDGSFFLYSKLTVDKSRWQEGNVFSCSVMHEALHNHYTQKSLSLSLG
light: EIVMTQSPATLSLSVGERVTLSCKASENVGGYVSWYQQKPDQSPKLLIYGASSRHTGVPDRFTGSGSETDFTLTISSVQAEDLAAYHCGQNYIYPFTFGGGTKLEIKRTVAAPSVFIFPPSDEQLKSGTASVVCLLNNFYPREAKVQWKVDNALQSGNSQESVTEQDSKDSTYSLSSTLTLSKADYEKHKVYACEVTHQGLSSPVTKSFNRGEC
B4: human-mouse chimeric anti-TrkA monoclonal antibody 23E12 (H0L0-IgG4) (antibody)
heavy: B3 heavy with E1Q, L5Q, E6Q, G9A, G10E, Q13R, G16T, L18V, L20I
light: B3 light with E1S, A9K, T10S, L11M, L13M

One assay concerns the target TrKB. Kind of assay: ELISA.
Regarding B1, the binding entry is given as “no binding (tested: 20 µg/mL)”.

For the molecule B2, the binding result was “no binding (tested: 20 µg/mL)”.

Turning to B3, the binding entry was “no binding (tested: 20 µg/mL)”.

Consider B4, for which the binding entry is “no binding (tested: 20 µg/mL)”.

In another assay the target is P75 (low-affinity NGF receptor p75). Kind of assay: ELISA.
Consider B1, for which the binding result was “no binding (tested: 20 µg/mL)”.

Take B2: the binding entry is “no binding (tested: 20 µg/mL)”.

For the molecule B3, the binding entry is recorded as “no binding (tested: 20 µg/mL)”.

In the case of B4, the binding result is recorded as “no binding (tested: 20 µg/mL)”.

A further assay deals with TrKC. Kind of assay: ELISA. In general terms: In an ELISA, binding on a coated surface is turned into a signal by an enzyme label.
On to B1, for which the binding entry is “no binding (tested: 20 µg/mL)”.

With B2, the binding result is “no binding (tested: 20 µg/mL)”.

For the molecule B3, the binding entry is listed as “no binding (tested: 20 µg/mL)”.

In the case of B4, the binding entry is recorded as “no binding (tested: 20 µg/mL)”.
